In article PMC10972746, “Substrate-induced condensation activates plant TIR domain proteins” (Nature, 2024) one finds binding data, which are given here for one molecule.

These are yes or no findings as the source states them, for the method shown. Some binding calls cover weakened binding; strength is not graded here. Sequences can lack the tags named with a protein.

The target in this assay is RBA1–GFP (A. thaliana accession Ag-0) (UniProt F4HT77). Kind of assay: SEC; gel filtration of purified GFP-fused proteins; Superose 6 column markers shown; peak fractions on SDS-PAGE with Coomassie staining; both purified. A general note: SEC sorts molecules by how far they enter the pores of the column.

B1: RBA1–GFP (protein, UniProt F4HT77 1-191)
chain: MTSVSPRYRNVPVPKVFLSFRGEEIRHGFISHLADALERYGIMFIIDKDEQRGNDLTSLLLRIKESKVALVIFSSRFAESRFCMDEIVKMKECVDERKLLVIPIFYKVRARDVSGRTGDFGKKFWALAQKSRGCQIKEWMEALECISNKMGLSLGDGRSEADFIKEIVKEVERVLATFTSEDTEDHHCQTV
Consider B1, for which the binding result is on record as “binds”.
